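Luminescence from an EWS-FLI1 target-promoter (NR0B1) reporter, set against a CMV-promoter reporter, two days after silencing single genes in TC32 Ewing sarcoma cells.
Each siRNA was applied at 20 nM.
A z-score of the log NR0B1-over-CMV signal, less the median of siRNAs with the same seed; more negative means a stronger specific loss of the NR0B1 reporter.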

The strongest results of the screen are mostly left out here.
Sequences are the guide (antisense) strand, without overhang.

| siRNA | target gene | seed-corrected z-score |
|---|---|---|
| `UUCUUCACAAAUUUGACUC` | GLO1 | 0.636 |
| `UCAUAGUUCAGGUUCUUGG` | ALDH16A1 | -1.153 |
| `AUCUGGACCCUGAAUCUUC` | RPL32P16 | 0.8168 |
| `AAGCUGAAACAUCAUAUCC` | CDK6 | -0.7188 |
| `AAUGUACUCAUUAUUGUCC` | RNF145 | 0.1963 |
| `UAGCUUAAUUUUACAGUCC` | CDC40 | 0.009644 |
| `UCAUAGCCUAGCAUACUCC` | WNK2 | 0.08105 |
| `UGUGAUUGUAGUUUGUCCG` | KLHL23 | 0.3648 |
| `UAGGAGAACAGUACCCUUG` | SLC4A1 | -0.4379 |
| `UGAGCAGAUAGAAUAGUCC` | PUS3 | 0.2001 |
| `UAUCAAUCUCUGAUGCUCC` | STAMBPL1 | 0.7216 |
| `UGGAUUUUGACUUUUGGGC` | LRRC37B | 0.3999 |
| `UUCUGAGCUUGCAUAAUCC` | ANKEF1 | 0.3264 |
| `UGUUAUACAUGUCAUAUCG` | SAMD9L | 0.2194 |
| `AAAUGAUUCAAAAUAAGGC` | HACD4 | 0.9914 |
| `UAUCAGCGAAUUUCCACUC` | DOPEY2 | -0.5444 |
| `UUUGGUGUCAGUUGCUCCG` | GOLGA6L2 | -1.28 |
| `GCAGGUAUAAGGACCUAGA` | LOC100128762 | -0.01818 |
| `UUCUCAAGAAGUGAAAGGC` | PEX26 | -1.239 |
| `UCUAUUAUGAUUAUGUGAG` | ZNF41 | 0.3833 |
| `UCCUGGAUAAUAGUCCUAG` | SLC26A8 | 0.2631 |
| `UCUGAAACUCUUAAAUAGC` | RCAN2 | -0.6648 |
| `UCAGCAGCGAGUUCUGAAU` | NMRK2 | -0.5201 |
| `UCUCUUUCACCAUCUAUCU` | GPR39 | 0.6724 |
| `UACCCGUACUGUUUGUUGG` | AVPR1A | -0.2217 |
| `UUUGAAAUUCUUUAUGGUG` | PMS2P1 | 0.6477 |
| `UUUCGAAUCAUGCUCAAGG` | PACRG | 0.5802 |
| `UCUUGGUCAGCAUUAUUCC` | GART | -0.2494 |
| `UAAGGAUUUCUAUAUGUUC` | MCTS1 | 0.1038 |
| `AUUGUUAAGUAUAUCAUGC` | DRC1 | 1.018 |
| `UUCCGGAAAAUUGCUGAGC` | SLC2A2 | -0.2198 |
| `AAUUGCACUAGCACGCACC` | C1QL3 | 0.9164 |
| `UAGGUAAUAUACAUGCUUC` | SLC19A3 | 0.4915 |
| `UGAUUGUAUAGCCGCGUGC` | SLC25A34 | 0.715 |
| `UACAGAAUGAUGUAGCUGU` | GSN | 0.01183 |
| `UCUCAGAGCACGGAUGUUG` | ASB10 | -0.6146 |
| `UACUCAUCAACAACUCUGC` | PAXIP1 | -0.594 |
| `UUUCUUCAUGGUUUCUUGC` | CCDC190 | -0.3334 |
| `UAUGGGUCGACUUUGCCUU` | PRSS50 | -0.6409 |
| `ACUGUCAUUAGGAAUGCUC` | COPRS | 0.5568 |
| `UUCACCUUCCGAAUCAUCC` | ZNF467 | 0.02636 |
| `UUAGAACCCAGUCACGCUC` | DDX5 | -1.516 |
| `UAAAUCCAUGCUGUUAUCU` | MMD | 0.447 |
| `UAACUAGAAACAAUUCGGC` | PIN1 | -0.2629 |
| `UCCUCCAAAAGGAUCUUGC` | UBQLNL | -0.2796 |
| `UCAUGAACUGGGCAAAUGC` | RBM28 | 0.7931 |
| `UUUGGUGAAACUAGCACUG` | DNAJC27 | -0.003164 |
| `UUUUGGACUUGCAGCGACG` | RPS16P10 | 0.38 |
| `UCCUGGAUCCGAAAGUAGC` | MRPL20 | -0.5193 |
| `UUCCUUAACCUCCUGAUUG` | RCAN2 | 0.3029 |
| `UAAGUUUCUUAAGUGAAGA` | KRTAP9-9 | -0.48 |
| `UAUAUGACCACAGUUUGCC` | RPS6KC1 | -0.7485 |
| `UAAACCUCCAGGUUGACCU` | RPL22L1 | 0.01844 |
| `UCCGGGUUGAUGUUCAGAG` | DMRTB1 | -0.05296 |
| `UGCUUAUAAAAAUCUAGCC` | ZNF155 | -0.8214 |
| `UUGGUAUCUAGAAUUGGUC` | PPP2R1B | -0.7438 |
| `UUCAGUUACGGAAAGUUGC` | CFAP161 | 0.5969 |
| `UGCAUGUAUAUGAUCCAGC` | CNTN6 | -0.1436 |
| `UCCUAAGGAAGUACAAAGC` | LYRM5 | 0.7928 |
| `UCAGUAUCAGGAUAGUAGC` | CAMSAP1 | 0.6893 |
| `UUACUGAAUGUCUCUGUUU` | ELMSAN1 | 0.985 |
| `UUAUGUACAGGGCGCGACG` | GPR35 | -1.578 |

For reference, 4 entries once more:

siRNA,target gene,seed-corrected z-score
UCAGUAUCAGGAUAGUAGC,CAMSAP1,0.6893
UUUGGUGUCAGUUGCUCCG,GOLGA6L2,-1.28
UUUCGAAUCAUGCUCAAGG,PACRG,0.5802
AUCUGGACCCUGAAUCUUC,RPL32P16,0.8168

From PubChem BioAssay record AID1159506 (NCATS, 2015).